{"source": "PubChem BioAssay AID493014", "about": "(National Center for Advancing Translational Sciences (NCATS), 2011)", "note": "Out of some 340,000 compounds screened, about 170 (0.05%) were called active. This list was built around the results that the source calls inconclusive (neither active nor inactive); the mix of calls is not that of the screen. The call rests on the fitted dose curve; in most records, active means well fitted inhibition curve with a large enough effect in the signal ratio, with a control signal flat (not every such curve was filed as active); inconclusive means small, poorly fitted or top-dose-only effect, or effect the other way, or a change in a side signal; inactive means flat fitted curve, though single readings scatter; the % refers to the signal ratio. A potency beside an inconclusive call is a rough fit, not a confirmed value. Potency means the concentration at half of the fitted maximal effect.", "data": [{"experiment": "qHTS Assay to Find Inhibitors of Chronic Active B-Cell Receptor Signaling;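 on activity change, negative = inhibition: plate controls were basal doxycycline-induced cells for no effect and cells given 10 µM MG132 for full effect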", "settings": "ABC-DLBCL IkBa-CBG/CBR reporter, luminescence ratio (green luciferase fused to IkBa over red control in TMD8 lymphoma cells), 4 h; activity change, negative = inhibition: at 46.1 µM (top of the series)", "outline": "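Concentration-response series (up to 46 uM) were applied to TMD8 dual-reporter cells for 4 h at 37C with doxycycline. Green/red ratio, after filter-overlap correction, defined %Activity; red signal alone was normalised to basal cells and zero luminescence.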", "values": [{"smiles": "COc1ccc(OC)c(NC(=O)C2CC2c2ccccc2)c1", "note": "(centres undefined)", "activity change, negative = inhibition": "inconclusive: 6.31%"}, {"smiles": "COc1cccc(CNC(=O)CCC2CCCN(C(=O)c3cc4ccccc4o3)C2)c1", "note": "(centres undefined)", "activity change, negative = inhibition": "inconclusive: -12.7%"}, {"smiles": "COCCN1C(=O)/C(=C/c2ccc(Oc3ccc([N+](=O)[O-])cn3)c(OC)c2)SC1=Nc1ccccc1", "activity change, negative = inhibition": "inactive"}, {"smiles": "O=C(c1cc2cc([N+](=O)[O-])ccc2s1)N1CCCCC1", "activity change, negative = inhibition": "inconclusive: 5.53%"}, {"smiles": "Cc1cc2c(=O)n(CC(=O)N3CCN(c4ccccc4)CC3)cnc2s1", "activity change, negative = inhibition": "inconclusive: 12%"}, {"smiles": "C[N+]1(CC(=O)OC2CCCCCCCCCCC2)CCCC1", "Potency": "inconclusive: 0.1 µM [falling, full curve, poor fit]"}, {"smiles": "O=C(Nn1c(SCc2ccc([N+](=O)[O-])cc2)nc2ccccc2c1=O)c1ccc(F)cc1", "Potency": "inconclusive: 8.2 µM [falling, partial curve]"}, {"smiles": "CCc1ccc(N(C(C)=O)c2nc(CCl)cs2)cc1", "activity change, negative = inhibition": "inactive"}, {"smiles": "C=C(C)C(O)COc1c2occc2c(OC)c2ccc(=O)oc12", "note": "(centres undefined)", "activity change, negative = inhibition": "inconclusive: -2.12%"}, {"smiles": "C/C(=N\\Nc1nc(-c2ccccc2)cs1)c1cccs1", "Potency": "inconclusive: 0.092 µM [falling, full curve]"}, {"smiles": "O=S1(=O)CCOC[C@H](CC2CCCCC2)N1Cc1cccc(Cl)c1", "activity change, negative = inhibition": "inconclusive: 3.33%"}, {"smiles": "NC(=O)c1ccc2c(=O)n3c(-c4cc(Cl)c(N)c(Cl)c4)csc3nc2c1", "activity change, negative = inhibition": "inactive"}, {"smiles": "CCC1=C(OC(=O)N(CC)CC)N2C(=O)OC(=NCC3CC3)[C@]2(C)[C@H]2C1=CC[C@H]1C(=O)N(C)C(=O)[C@H]12", "activity change, negative = inhibition": "inconclusive: -7.76%"}, {"smiles": "COc1ccccc1NC(=O)N1CCc2c([nH]c3ccccc23)C1C(F)(F)F", "note": "(centres undefined)", "Potency": "inconclusive: 11.2 µM [falling, partial curve]"}, {"smiles": "Cc1ccccc1C(=O)NNC(=S)NC(=O)COc1ccccc1", "Potency": "inconclusive: 32.6 µM [falling, partial curve, poor fit]"}, {"smiles": "O=C(NCc1ccc(OC(F)(F)F)cc1)C1CC2Cn3c(nc4ccccc43)C2N1c1ccccc1", "note": "(centres undefined)", "activity change, negative = inhibition": "inactive"}, {"smiles": "CCc1cc2c(SCC(=O)NCC3CCCO3)ncnc2s1", "note": "(centres undefined)", "activity change, negative = inhibition": "inactive"}, {"smiles": "O=C(Cn1cc(C(F)(F)F)ccc1=O)Nc1ccccc1", "Potency": "inconclusive: 35.5 µM [falling, single point]"}, {"smiles": "O=C(Cc1cccs1)N1CCN(C(=O)C2CCCO2)CC1", "note": "(centres undefined)", "activity change, negative = inhibition": "inconclusive: 11.4%"}, {"smiles": "CC1=C(Nc2ccc(C(=O)O)cc2)C(=O)c2ccccc2C1=O", "activity change, negative = inhibition": "inconclusive: -0.486%"}, {"smiles": "COc1ccc(/C=N/NC(=O)c2nc(-c3ccccc3)cc(-c3ccccc3)n2)cc1", "activity change, negative = inhibition": "inactive"}, {"smiles": "O=C(O)c1ccccc1-c1ccccc1C(=O)NCc1ccccc1F", "activity change, negative = inhibition": "inactive"}, {"smiles": "CCc1ccc(NC2=NC(C(=O)NC3CCCCC3)CC(=O)N2)cc1", "note": "(centres undefined)", "activity change, negative = inhibition": "inconclusive: 6.83%"}, {"smiles": "O=C(CN1CCN(S(=O)(=O)c2ccc(F)cc2)CC1)Nc1ccccc1C(=O)NC1CC1", "activity change, negative = inhibition": "inconclusive: 6.83%"}, {"smiles": "CCc1n[nH]c(=S)n1N=C1CCC(C)CC1", "note": "(centres undefined)", "activity change, negative = inhibition": "inactive"}, {"smiles": "CS/C(N)=N/N=C/c1cc(C)ccc1O", "Potency": "inconclusive: 31.6 µM [cytotoxic, single point]"}, {"smiles": "Cc1ccc(C(=O)COC(=O)c2cn3ccccc3n2)cc1", "activity change, negative = inhibition": "inactive"}, {"smiles": "Cc1ccc(N(C(=O)c2csnn2)C(C(=O)NC(C)(C)C)c2ccncc2)cc1", "note": "(centres undefined)", "activity change, negative = inhibition": "inactive"}, {"smiles": "NC(=O)C1(c2ccccc2)CCC(=O)N1c1ccccc1", "note": "(centres undefined)", "activity change, negative = inhibition": "inconclusive: 0.85%"}, {"smiles": "O=C(c1ncc[nH]1)c1ccccc1Cl", "activity change, negative = inhibition": "inconclusive: 0.508%"}, {"smiles": "CCCOc1ccc2c3c(c(=O)oc2c1)CCCC3", "activity change, negative = inhibition": "inconclusive: 17.7%"}, {"smiles": "Cc1sc2ncnc(NCC(O)c3ccccc3)c2c1C", "note": "(centres undefined)", "activity change, negative = inhibition": "inactive"}, {"smiles": "CCOC(=O)CN1C(=O)C(CC)Oc2ccccc21", "note": "(centres undefined)", "activity change, negative = inhibition": "inactive"}, {"smiles": "CC(C)COc1ccc2[nH]c3c(c2c1)CCCC3=O", "activity change, negative = inhibition": "inconclusive: 11.4%"}, {"smiles": "COc1cccc(C(=O)Nc2ccc(F)c(F)c2F)c1", "Potency": "inconclusive: 11.2 µM [falling, partial curve]"}, {"smiles": "COC(=O)CC(c1ccc(F)cc1)n1c(C)ccc1C", "note": "(centres undefined)", "activity change, negative = inhibition": "inconclusive: -19.7%"}, {"smiles": "Fc1ccc(OCc2nnc(SCCN3CCOCC3)o2)cc1", "activity change, negative = inhibition": "inconclusive: 5.14%"}, {"smiles": "O=C(N/N=C/c1c(O)ccc2ccccc12)c1cccc(C(F)(F)F)c1", "activity change, negative = inhibition": "inconclusive: -22.6%"}, {"smiles": "Cc1ccccc1C(=O)Nc1ccc(Cl)cn1", "Potency": "inconclusive: 14.1 µM [falling, partial curve]"}, {"smiles": "O=C(COc1ccccc1Cl)Nc1ccc(N2CCN(C(=O)c3ccccc3)CC2)cc1", "Potency": "inconclusive: 20 µM [falling, single point]"}, {"smiles": "Cc1ccc(CNC(=O)Cn2c([N+](=O)[O-])cnc2C)cc1", "activity change, negative = inhibition": "inconclusive: 5.93%"}, {"smiles": "CC(=NCc1cccnc1)C1=C(O)c2ccccc2C1=O", "activity change, negative = inhibition": "inactive"}, {"smiles": "Cc1ccc(/C=[N+](/[O-])C2SC(=S)N(C)C2(C)C)cc1", "note": "(centres undefined)", "activity change, negative = inhibition": "inconclusive: 1.8%"}, {"smiles": "COc1cccc(C(=O)NCC(C)(C)SCc2ccc(F)cc2)c1", "activity change, negative = inhibition": "inconclusive: -19.7%"}, {"smiles": "Cc1ccc(OCCCCc2c(C)n[nH]c2C)cc1", "activity change, negative = inhibition": "inconclusive: 2.87%"}, {"smiles": "COC(=O)c1cccc(NC(=O)Nc2ccc(Cl)cc2)c1", "activity change, negative = inhibition": "inconclusive: 1.07%"}, {"smiles": "COc1ccc(C(=O)N(C)C(C)c2ccon2)cc1OC1CCN(C(C)C)CC1", "note": "(centres undefined)", "activity change, negative = inhibition": "inactive"}, {"smiles": "O=S(=O)(NCc1ccc2c(c1)OCO2)c1ccc(F)c(F)c1", "activity change, negative = inhibition": "inactive"}, {"smiles": "COc1cccc(NC(=O)CC2(CC(=O)O)CCCC2)c1", "activity change, negative = inhibition": "inconclusive: 10.6%"}, {"smiles": "c1ccc(-c2nc(CSc3n[nH]c(-c4cccs4)n3)cs2)cc1", "Potency": "inconclusive: 31.6 µM [falling, single point]"}, {"smiles": "CC(=O)Nc1cccc(C(=O)N/N=C/c2c[nH]c3ccccc23)c1", "Potency": "inconclusive: 25.1 µM [falling, single point]"}, {"smiles": "CCOc1cc(/C=C2\\COc3ccccc3C2=O)ccc1OCC(=O)N(C)C", "activity change, negative = inhibition": "inconclusive: 15.2%"}, {"smiles": "CCOc1ccc(C(=O)Nc2ccc(-c3nc4ccccc4[nH]3)cc2)cc1[N+](=O)[O-]", "activity change, negative = inhibition": "inactive"}, {"smiles": "CCOC(=O)C1=C(CN2CCN(C(=O)c3ccco3)CC2)NC(=O)NC1c1ccc(OC)cc1", "note": "(centres undefined)", "activity change, negative = inhibition": "inactive"}, {"smiles": "COc1ccc(CN2CCN(S(=O)(=O)c3ccccc3)CC2)c(OC)c1", "activity change, negative = inhibition": "inconclusive: -9.89%"}, {"smiles": "O=C(Nc1ccc(-c2csc(Nc3ccc(Cl)cc3)n2)cc1)c1ccccc1", "activity change, negative = inhibition": "inconclusive: -15.7%"}, {"smiles": "Cc1ccc(CSc2nnc3[nH]c(=O)cc(C)n23)cc1", "activity change, negative = inhibition": "inconclusive: 22.5%"}, {"smiles": "CCc1cc(C(=O)N2CCCC(CCC(=O)N3CCN(c4ccccn4)CC3)C2)no1", "note": "(centres undefined)", "activity change, negative = inhibition": "inconclusive: 13.5%"}, {"smiles": "Nc1cc(=O)[nH]c(SCC(=O)N2CCCc3ccccc32)n1", "activity change, negative = inhibition": "inactive"}, {"smiles": "O=C(Nc1nnc(-c2ccc(F)cc2)s1)c1c(F)cccc1Cl", "Potency": "inconclusive: 5.01 µM [falling, single point]"}, {"smiles": "CC(C)c1ccc(NC(=O)COc2ccccn2)cc1", "activity change, negative = inhibition": "inactive"}, {"smiles": "COc1cc2cc(CN(CCO)C(=O)c3cccs3)c(=O)[nH]c2cc1OC", "activity change, negative = inhibition": "inconclusive: -11.1%"}, {"smiles": "COc1ccc(-c2cc(-c3ccc(O)cc3)nc(N)c2C#N)cc1", "Potency": "inconclusive: 15.8 µM [falling, single point]"}, {"smiles": "C=C(C)C(=O)O[C@H]1C/C(C)=C\\C(=O)/C=C(\\C)[C@H](O)[C@@H]2OC(=O)C(=C)[C@@H]21", "Potency": "inconclusive: 6.31 µM [falling, single point]"}, {"smiles": "CC(C)(C)c1ccc(COC(=O)Nc2ccc(F)cc2)cc1", "activity change, negative = inhibition": "inconclusive: -17.4%"}, {"smiles": "Oc1c(Br)cc(C=Nc2ccc3nc(-c4ccccc4)[nH]c3c2)c(O)c1Br", "activity change, negative = inhibition": "inconclusive: -11.3%"}, {"smiles": "O=C(Nc1ccc(Br)cc1)c1cc(-c2cccs2)on1", "Potency": "inconclusive: 14.1 µM [falling, single point]"}, {"smiles": "COCCNC(=S)N/N=C/c1c2ccccc2cc2ccccc12", "Potency": "inconclusive: 15.8 µM [falling, single point]"}, {"smiles": "Cc1ccc(C(=O)NC2(O)C(=O)c3ccccc3C2=O)cc1C", "activity change, negative = inhibition": "inconclusive: -9.48%"}, {"smiles": "COCn1c(-c2ccc(OC)cc2)nc2ccccc21", "activity change, negative = inhibition": "inactive"}, {"smiles": "CCC(c1nnc(SCCNCCO)n1CCN1CCOCC1)N(C)C", "note": "(centres undefined)", "activity change, negative = inhibition": "inactive"}, {"smiles": "Nc1nnnn1/N=C/c1ccccn1", "Potency": "inconclusive: 6.51 µM [rising, partial curve, poor fit]"}, {"smiles": "Cn1nc(C(=O)Nc2ccc(-n3cnnn3)cc2)c2ccccc2c1=O", "activity change, negative = inhibition": "inconclusive: -0.12%"}, {"smiles": "Cc1ccc(CNC(=O)C2CCCN(Cc3cnn(-c4ccccc4)c3-n3cccc3)C2)cc1", "note": "(centres undefined)", "activity change, negative = inhibition": "inconclusive: 4.17%"}, {"smiles": "CC(=O)c1ccc(OCCCC(=O)NNC(=O)c2ccccn2)cc1", "activity change, negative = inhibition": "inconclusive: -0.247%"}, {"smiles": "O=C(Nc1cccc(-c2cn3c(n2)SCC3)c1)c1ccc2c(c1)OCO2", "Potency": "inconclusive: 11.2 µM [falling, partial curve]"}, {"smiles": "CCCC(C(=O)NNC(=O)c1cc(C)oc1C)c1ccccc1", "note": "(centres undefined)", "activity change, negative = inhibition": "inactive"}, {"smiles": "CCc1ccc(NC(=O)C2(C)Cc3ccccc3C(=O)O2)cc1", "note": "(centres undefined)", "Potency": "inconclusive: 2.24 µM [falling, partial curve, poor fit]"}, {"smiles": "Nc1cc(=O)[nH]c(SCCSc2ccccc2F)n1", "activity change, negative = inhibition": "inconclusive: -6.21%"}, {"smiles": "C/C(CC(=O)Nc1ccc(N(C)C)cc1)=N\\NC(=O)c1ccccc1F", "Potency": "inconclusive: 28.2 µM [falling, partial curve]"}, {"smiles": "O=C(Cn1ncn2c(cc3ccccc32)c1=O)NCCCc1ccccc1", "activity change, negative = inhibition": "inconclusive: 0.183%"}, {"smiles": "O=C(CSc1nc2ccccc2o1)NCC1CCCO1", "note": "(centres undefined)", "activity change, negative = inhibition": "inconclusive: 10.3%"}, {"smiles": "CC1CCN(C2=NC(=O)/C(=C/c3cn[nH]c3-c3ccccc3)S2)CC1", "Potency": "inconclusive: 6.51 µM [falling, full curve]"}, {"smiles": "Cc1ccc(NC(=O)C(=O)NN=C2CCCC2)cc1C", "activity change, negative = inhibition": "inconclusive: -26.3%"}]}]}
